{"source": "paper PMC3553376", "target": "YopN-GSK (Y. pestis) (UniProt P68640)", "assay": "cross-linking + co-IP", "note": "Results are given in words; binding and its absence hold for the method and conditions named. In cells and extracts the contact can be indirect. Some binding calls cover weakened binding; strength is not graded here.", "data": [{"substance": "SycN/YscB chaperone (from UniProt P61380;Q56973) (complex)", "values": [{"measurement": "binding", "result": "binds"}]}]}
